Binding screen against folded nucleic acids

Oligonucleotides screened, 5′ to 3′:
SAM-II: SAM-II riboswitch RNA pseudoknot, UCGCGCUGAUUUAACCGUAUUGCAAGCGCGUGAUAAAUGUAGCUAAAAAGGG. About 21,000 compounds screened, about 200 hits.
TPP: TPP riboswitch RNA three-way junction, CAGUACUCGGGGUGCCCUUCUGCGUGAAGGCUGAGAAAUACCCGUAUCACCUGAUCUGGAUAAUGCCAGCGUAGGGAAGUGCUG. About 24,000 compounds screened, about 160 hits.
PreQ1: PreQ1 riboswitch RNA pseudoknot, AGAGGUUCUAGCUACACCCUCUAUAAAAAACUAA. From B. subtilis. About 24,000 compounds screened, about 170 hits.

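Each compound is printed as two spots on a slide made to bind it covalently, so it has no test concentration; the read-out is fluorescence of the bound, labelled oligonucleotide. For the PreQ1, TPP and SAM-II riboswitches the laboratory earlier reported (doi:10.1038/s41467-019-09493-3) 1 µM RNA, 2 h, and a rule that included a mean Z-score above 3 (spot signal-to-noise against the whole library), a score well above that on a control array, and duplicate spots agreeing (coefficient of variation under 100). The data file gives only the calls; its cut-offs may differ, and compounds hitting several targets are kept. A missing hit is not proof of no binding, and a hit is not a measured affinity.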 Key: hit = hit, none = tested without a hit. The compounds are a random part of those screened. A target missing from an entry has no call listed here.

compound: CC(C)N(CC1COc2ccccc2O1)C(=O)c1cc2n(n1)CCCNC2 (configuration not stated)
SAM-II: none
TPP: none
PreQ1: none

compound: CN1CCC2(CC1)CCN(C(=O)C1CNC1)C2
SAM-II: none
TPP: none
PreQ1: none

compound: Cn1c(=O)n(C)c2cc(CNCc3cn(CCC(N)=O)c4ccccc34)ccc21
SAM-II: none
TPP: none
PreQ1: none

compound: CCN(CC)CCNc1c(C)nc(C#N)c(N)[n+]1[O-]
SAM-II: none
TPP: none
PreQ1: none

compound: CCOC(=O)C1CCCN(c2c(NCCc3ccc(Cl)cc3)c(=O)c2=O)C1 (configuration not stated)
TPP: none
PreQ1: none

compound: Cc1nc(-c2cccc(-n3cccn3)c2)n(CCO)n1
SAM-II: none
TPP: none
PreQ1: none

compound: CN(C)c1ccc(-c2nc3cnccn3c2Nc2ccc(Br)cc2)cc1
TPP: none
PreQ1: none

compound: Cc1cnc(C(=O)NCCc2ccc(S(=O)(=O)NC(=O)NC3CCCCC3)cc2)cn1
SAM-II: none
TPP: none
PreQ1: none

compound: Cc1ccc(OCc2ccc(-c3nc(C#N)c(NCCCN4CCOCC4)o3)o2)cc1
TPP: none
PreQ1: none

compound: CN1CCN(Cc2nc3c(c(=O)n(C)c(=O)n3C)n2CCCO)CC1
SAM-II: none
TPP: none
PreQ1: none

compound: CC[C@H](N)C(=O)Nc1nn(-c2ccc(OC)cc2)c2cccc(N3CCOCC3)c12
SAM-II: none
TPP: none
PreQ1: none

compound: COc1ccc(CNCc2ccc(OCC(O)c3ccc4c(c3)n(C)c(=O)n4C)cc2)cc1 (configuration not stated)
TPP: none
PreQ1: none

compound: O=C1c2[nH]nc(-c3ccccc3O)c2C(c2ccc(F)cc2)N1CCO (configuration not stated)
TPP: none
PreQ1: none

compound: Nc1c(Nc2cccc(C(=O)O)c2)c2ccccc2oc1=O
SAM-II: none
TPP: none
PreQ1: none

compound: COc1ccc(C2c3c(-c4cc(C)ccc4O)n[nH]c3C(=O)N2CCCO)cc1 (configuration not stated)
TPP: none
PreQ1: none

compound: NC(=S)c1cn(C2OC(CO)C(O)C2O)c2ncnc(N)c12 (configuration not stated)
SAM-II: none
TPP: none
PreQ1: none

compound: CC(=O)c1ccc(N2CCN(C(=O)[C@@]34CNC[C@@H]3CN(C(C)=O)C4)CC2)cc1
SAM-II: none
TPP: none
PreQ1: none

compound: Cc1cccc(CN2c3ccccc3C3=C(C(c4ccccc4)C(C#N)=C(N)O3)S2(=O)=O)c1 (configuration not stated)
TPP: none
PreQ1: none

compound: Nc1ccccc1SC1CC(=O)N(c2ccccc2Cl)C1=O (configuration not stated)
SAM-II: none
TPP: none
PreQ1: none

compound: COc1cc2c(Nc3ccc(Cl)c(Cl)c3F)ncnc2cc1OCC1C[C@@H]2CN(C)C[C@H]2C1
SAM-II: none
TPP: none
PreQ1: none

compound: Cc1cc(NCCCO)c2nncn2n1
SAM-II: none
TPP: none
PreQ1: none

compound: Cc1nc(NCc2ccccc2)c2sc3nc4c(cc3c2n1)COC(C)(C)C4
SAM-II: none
TPP: none
PreQ1: none

compound: O=C(CCc1cccnc1)N1C[C@H](CO)C[C@H](CN2CCCC2)C1
SAM-II: none
TPP: none
PreQ1: none

compound: CC(C)C[C@H](N)c1nnc(SCc2c(Cl)cccc2Cl)o1
SAM-II: none
TPP: none
PreQ1: none

compound: CO[C@H]1/C=C\O[C@@]2(C)Oc3c(C)c(O)c4c(c3C2=O)C(=O)C(=CNN2CCN(C3CCCC3)CC2)C(=C4O)NC(=O)/C(C)=C\C=C/[C@H](C)[C@H](O)[C@@H](C)[C@@H](O)[C@@H](C)[C@H](OC(C)=O)[C@H]1C
SAM-II: none
TPP: none
PreQ1: none

compound: N#Cc1cc2ccccc2nc1N
SAM-II: none
TPP: none
PreQ1: none

compound: C=CCC1(CO)CCCN(C2CCN(C(=O)c3ccncc3)CC2)C1 (configuration not stated)
SAM-II: none
TPP: none
PreQ1: none

compound: COCCC1(CO)CCCN(C(=O)Cc2sc(N)nc2C)C1 (configuration not stated)
SAM-II: none
TPP: none
PreQ1: none

compound: CN1CCCN(C[C@@H]2CN(C(=O)CCc3ccccc3)C[C@@H]2CO)CC1
SAM-II: none
TPP: none
PreQ1: none

compound: CCOC(=O)c1cnc2ccccc2c1Nc1cccc(Cl)c1
SAM-II: none
TPP: none
PreQ1: none

compound: CC1=NCC(=O)N1c1cccc(N)c1
SAM-II: none
TPP: none
PreQ1: none

compound: COC(=O)c1[nH]c2ccc(F)cc2c1N
SAM-II: none
TPP: none
PreQ1: none

compound: CCCn1cnnc1CNC1CCN(c2nc(C)cc(C)n2)CC1
SAM-II: none
TPP: none
PreQ1: none

Repeated from the top, 2 entries:

{"compound": "CC(C)N(CC1COc2ccccc2O1)C(=O)c1cc2n(n1)CCCNC2", "stereo": "configuration not stated", "SAM-II": "none", "TPP": "none", "PreQ1": "none"}
{"compound": "CN1CCC2(CC1)CCN(C(=O)C1CNC1)C2", "SAM-II": "none", "TPP": "none", "PreQ1": "none"}

Data from the ROBIN nucleic acid binder screens, doi:10.1002/anie.202211358.